The exact form of at least one protein or probe is not confirmed. For some assays here: Weaker means in comparison with the reference protein, sequence or condition of that experiment. For some assays here: Where cells or extracts were used, other partners may take part. For some assays here: At least one verdict rests on a figure or table, not on a statement of the authors. For some assays here: Tags and fusion partners may be left off the protein sequences shown.
Tests used:
[1] = target: RelA RHR homodimer (UniProt Q04207); experiment: SPR; conditions: much weaker than Rel; SPR: 10 mM HEPES pH 7.5, 150 mM NaCl, 3 mM EDTA, 0.005% Tween 20, 10 C; recombinant protein; label: biotin
[2] = target: Rel RHR homodimer (UniProt P15307); experiment: SPR; conditions: faster off-rate than on GGGGGTTTTT; SPR: 10 mM HEPES pH 7.5, 150 mM NaCl, 3 mM EDTA, 0.005% Tween 20, 10 C; recombinant protein; label: biotin
[3] = target: Rel RHR homodimer (UniProt P15307); experiment: EMSA; conditions: EMSA: 10 mM Tris-HCl pH 7.5, 150 mM NaCl, 1 mM DTT, 1 mM EDTA, 5% glycerol, 80 ng/ul dI-dC, 200 ng/ul BSA, 4 C, off-rate with 100-fold unlabeled consensus, recombinant protein, label: 32P
[4] = target: RelA RHR mouse (mouse) (UniProt Q04207); experiment: EMSA off-rate; conditions: faster than Rel; EMSA: 10 mM Tris-HCl pH 7.5, 150 mM NaCl, 1 mM DTT, 1 mM EDTA, 5% glycerol, 80 ng/ul dI-dC, 200 ng/ul BSA, 4 C; off-rate with 100-fold unlabeled consensus; protein in a lysate after overexpression; protein details: N-terminal Flag; label: 32P
[5] = target: T1, Rel RHR human (Homo sapiens) (UniProt Q04864); experiment: EMSA off-rate; conditions: EMSA: 10 mM Tris-HCl pH 7.5, 150 mM NaCl, 1 mM DTT, 1 mM EDTA, 5% glycerol, 80 ng/ul dI-dC, 200 ng/ul BSA, 4 C, off-rate with 100-fold unlabeled consensus, protein in a lysate after overexpression, protein details: N-terminal Flag, label: 32P
T1 sequence (looked up, limits assumed): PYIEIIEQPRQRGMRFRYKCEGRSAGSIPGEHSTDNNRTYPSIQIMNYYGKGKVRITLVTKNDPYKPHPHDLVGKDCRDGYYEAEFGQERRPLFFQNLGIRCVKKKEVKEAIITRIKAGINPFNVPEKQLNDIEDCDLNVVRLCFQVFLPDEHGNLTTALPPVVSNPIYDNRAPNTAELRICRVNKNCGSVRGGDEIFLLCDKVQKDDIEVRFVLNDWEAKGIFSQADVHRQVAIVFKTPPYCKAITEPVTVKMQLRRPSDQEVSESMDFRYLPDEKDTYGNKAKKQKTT

Amino acid sequences for entries named in this document (tags omitted). Residues count along the entry.
UniProt Q04207, 19-306: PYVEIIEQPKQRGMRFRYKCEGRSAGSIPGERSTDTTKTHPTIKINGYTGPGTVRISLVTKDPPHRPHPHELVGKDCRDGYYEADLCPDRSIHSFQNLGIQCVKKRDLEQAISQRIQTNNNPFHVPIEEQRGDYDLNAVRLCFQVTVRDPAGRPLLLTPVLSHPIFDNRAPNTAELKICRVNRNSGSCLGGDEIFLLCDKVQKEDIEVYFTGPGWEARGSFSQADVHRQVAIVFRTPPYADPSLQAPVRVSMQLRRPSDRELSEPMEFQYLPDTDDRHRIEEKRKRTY
UniProt A0ACM8Q4Y4, entry or part of it: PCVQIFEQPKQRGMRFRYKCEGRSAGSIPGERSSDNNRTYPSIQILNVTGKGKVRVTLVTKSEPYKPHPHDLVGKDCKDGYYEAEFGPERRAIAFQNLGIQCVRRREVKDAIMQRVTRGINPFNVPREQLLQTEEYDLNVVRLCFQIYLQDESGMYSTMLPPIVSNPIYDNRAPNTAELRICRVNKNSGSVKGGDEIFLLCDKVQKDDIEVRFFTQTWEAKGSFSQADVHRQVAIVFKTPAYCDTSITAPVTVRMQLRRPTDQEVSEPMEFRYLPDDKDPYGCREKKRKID
UniProt Q04206, 19-306: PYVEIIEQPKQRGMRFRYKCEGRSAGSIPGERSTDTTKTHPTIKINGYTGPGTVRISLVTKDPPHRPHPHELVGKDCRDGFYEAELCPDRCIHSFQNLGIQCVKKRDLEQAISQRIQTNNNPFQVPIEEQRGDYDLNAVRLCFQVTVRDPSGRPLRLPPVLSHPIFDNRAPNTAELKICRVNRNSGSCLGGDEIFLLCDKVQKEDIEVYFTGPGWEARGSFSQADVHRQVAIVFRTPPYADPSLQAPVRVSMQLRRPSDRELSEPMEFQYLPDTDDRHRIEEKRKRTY

[6] = target: Rel RHR R101Q R108Q (UniProt P15307); experiment: EMSA off-rate; conditions: faster off-rate than WT; EMSA: 10 mM Tris-HCl pH 7.5, 150 mM NaCl, 1 mM DTT, 1 mM EDTA, 5% glycerol, 80 ng/ul dI-dC, 200 ng/ul BSA, 4 C; off-rate with 100-fold unlabeled consensus; protein in a lysate after overexpression; label: 32P
[7] = target: Rel RHR R101A R108A (UniProt P15307); experiment: EMSA off-rate; conditions: difficult to detect, low affinity; EMSA: 10 mM Tris-HCl pH 7.5, 150 mM NaCl, 1 mM DTT, 1 mM EDTA, 5% glycerol, 80 ng/ul dI-dC, 200 ng/ul BSA, 4 C; off-rate with 100-fold unlabeled consensus; protein in a lysate after overexpression; label: 32P
[8] = target: Rel RHR mouse (mouse) (UniProt P15307); experiment: EMSA off-rate; conditions: EMSA: 10 mM Tris-HCl pH 7.5, 150 mM NaCl, 1 mM DTT, 1 mM EDTA, 5% glycerol, 80 ng/ul dI-dC, 200 ng/ul BSA, 4 C, off-rate with 100-fold unlabeled consensus, protein in a lysate after overexpression, protein details: N-terminal Flag, label: 32P
[9] = target: Rel RHR zebrafish (zebrafish) (UniProt A0ACM8Q4Y4); experiment: EMSA off-rate; conditions: comparable to RelA; EMSA: 10 mM Tris-HCl pH 7.5, 150 mM NaCl, 1 mM DTT, 1 mM EDTA, 5% glycerol, 80 ng/ul dI-dC, 200 ng/ul BSA, 4 C; off-rate with 100-fold unlabeled consensus; protein in a lysate after overexpression; protein details: N-terminal Flag; label: 32P
[10] = target: RelA RHR human (Homo sapiens) (UniProt Q04206); experiment: EMSA off-rate; conditions: faster than Rel; EMSA: 10 mM Tris-HCl pH 7.5, 150 mM NaCl, 1 mM DTT, 1 mM EDTA, 5% glycerol, 80 ng/ul dI-dC, 200 ng/ul BSA, 4 C; off-rate with 100-fold unlabeled consensus; protein in a lysate after overexpression; protein details: N-terminal Flag; label: 32P
[11] = target: T2, RelA RHR zebrafish (zebrafish) (UniProt A0A8M2BI19); experiment: EMSA off-rate; conditions: comparable to Rel; EMSA: 10 mM Tris-HCl pH 7.5, 150 mM NaCl, 1 mM DTT, 1 mM EDTA, 5% glycerol, 80 ng/ul dI-dC, 200 ng/ul BSA, 4 C; off-rate with 100-fold unlabeled consensus; protein in a lysate after overexpression; protein details: N-terminal Flag; label: 32P
T2 sequence (looked up, limits assumed): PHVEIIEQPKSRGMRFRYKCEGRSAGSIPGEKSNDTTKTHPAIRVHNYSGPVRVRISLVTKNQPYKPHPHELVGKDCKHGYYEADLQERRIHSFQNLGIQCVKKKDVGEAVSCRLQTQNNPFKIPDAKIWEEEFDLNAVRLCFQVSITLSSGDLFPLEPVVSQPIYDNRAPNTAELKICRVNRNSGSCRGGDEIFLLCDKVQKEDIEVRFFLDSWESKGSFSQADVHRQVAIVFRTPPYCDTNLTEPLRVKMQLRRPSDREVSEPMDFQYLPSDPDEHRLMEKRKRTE

[12] = tested on: RelA(C46) RHR chimera homodimer (mouse); experiment: SPR; conditions: half-life moderately below Rel, above RelA; SPR: 10 mM HEPES pH 7.5, 150 mM NaCl, 3 mM EDTA, 0.005% Tween 20, 10 C; recombinant protein; label: biotin
[13] = slowest-mobility (three-dimer) band lost

CCTAACATCAGGGGGGAGATTGATGTTAGG (double strand) [SPR GGGGGGAGAT]
binding result [1]: binds more weakly | binding result [2]: binds more weakly

AGGAACTTCTTAAAATTAAACCAGAATGTTTTGACA (double strand) [κB1+2m+3]
binding result [3, 13]: binds more weakly

CCTAACATCAAAAATTCCCCGATGTTAGG (double strand) [κB2 EMSA probe]
binding result [4]: binds more weakly | binding result ([5]; faster off-rate than consensus): binds | binding result [6]: binds more weakly | binding result [7]: binds more weakly | binding result ([8]; faster off-rate than consensus): binds | binding result [9]: binds | binding result [10]: binds more weakly | binding result [11]: binds

TGGGGGTTTAAAGAAATTCCAGAGAGTCATCAG (double strand) [CD28 RE]
binding result [4]: binds more weakly | binding result [5]: binds | binding result [8]: binds | binding result [9]: binds | binding result [10]: binds more weakly | binding result [11]: binds

CCTAACATCACACTAGTTTTTGATGTTAGG (double strand) [κB4 EMSA probe]
binding result ([3]; very weak, barely detectable): binds more weakly

CCTAACATCAGGGGGTTTTTTGATGTTAGG (double strand) [SPR GGGGGTTTTT]
binding result [12]: binds | binding result [1]: binds more weakly

AGGAACTTCTTAAAATTCCCCCAGAATGAAATGACA (double strand) [κB1+2+3m]
binding result [3, 13]: binds more weakly

CCTAACATCAAGAATGAAATTGATGTTAGG (double strand) [κB3m EMSA probe]
binding result ([3]; GTTTT half-site critical for binding): binds more weakly

ACCAACTTCTTAAAATTCCCCCAGAATGTTTTGACA (double strand) [κB1m+2+3]
binding result [3, 13]: binds more weakly

— article PMC12043515, “Stepwise neofunctionalization of the NF-κB family member Rel during vertebrate evolution”
